# The other results are listed elsewhere or left out. Further columns of the screen follow, without active or inactive calls. Most of these compounds were active or inconclusive in the main read-out, so they are no random draw. The note in brackets gives the kind of curve behind each potency; many fits are weak.
# Experiment: qHTS Assay for Lipid Storage Modulators in Drosophila S3 Cells;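 for cell number change: cells counted by Cell Tracker Red CMTPX staining in the red channel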
# Settings: BODIPY lipid droplet fluorescence, 18-24 h; for cell number change: measured here: cell count max response, cells fed with added oleic acid
# Outline: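 Drosophila S3 cells loaded with oleic acid (400 uM, as added) and compounds at several concentrations; lipid droplets imaged by 488-nm laser-scanning cytometry, 500–530 nm intensity and object ratio to cell channel. Percent activity normalized to 20 uM Triacsin C.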
# [1] = measured here: lipid fluorescence (Fed channel) AC50, cells fed with added oleic acid
# [2] = measured here: cell number channel AC50, cells fed with added oleic acid
Structure (SMILES),cell number change [%],AC50 [1],AC50 [2]
COc1ccc2[nH]c3c(Cl)ncnc3c2c1,-24.2,"1.84 µM [falling, single point]",
CC1(C)NC(=O)N(CCCSc2ccc(Cl)cc2)C1=O,-72.4,"18.4 µM [falling, partial curve]","32.6 µM [falling, single point]"
Cc1ccsc1CN(C)CC(=O)NCC(=O)Nc1ccc(F)cc1,-13.9,,
O=C(NC1CC2CCCC(C1)N2C(=O)N1CCCCC1)C1CCCCC1 (centres undefined),1.24,"0.731 µM [falling, full curve]",
CC(=O)Nc1ccc(S(=O)(=O)N[C@@H](C)C(=O)N(C)Cc2cccs2)cc1,-1.5,"3.66 µM [falling, single point]",
CCCN1CCN(c2nc(-c3cccs3)nc3ccccc23)CC1,-72.8,,"29.1 µM [falling, partial curve]"
O=C1c2cccc3c(N4CCCCC4)ccc(c23)C(=O)N1CCO,-94.7,"3.66 µM [falling, full curve]","5.8 µM [falling, full curve]"
COc1ccc(OCC(O)CNC(=O)/C=C/c2cccc([N+](=O)[O-])c2)cc1 (centres undefined),48.9,"6.51 µM [falling, single point]","29.1 µM [rising, single point]"
O=C(CSc1nnc2c(n1)[nH]c1ccccc12)NCc1ccco1,-11.7,,"1.16 µM [rising, partial curve]"
Cc1cc(C)nc(N/N=C2/CCCC/C2=C\c2ccccc2)n1,-0.244,"0.58 µM [rising, single point]","0.58 µM [rising, single point]"
COc1cccc(-c2ccc(C#N)c(SCC(=O)NCCc3ccc(Cl)cc3)n2)c1,-28.3,"13 µM [falling, single point]",
COc1ccc(Cc2nc3ccc(C(=O)NC(C)c4cnn(C)c4)cc3o2)cc1 (centres undefined),23.5,,
O=C(NCCC1=CCCCC1)C1CCN(C(=O)c2ccc(Cl)cc2)CC1,-19.6,"13 µM [falling, single point]",
NC(=O)CN1CCN(C(=O)NC2CCCCC2)CC1,28.1,"0.291 µM [falling, full curve, poor fit]",
Cc1noc(C)c1COC(=O)c1ccccc1Oc1ccccc1,,,"2.31 µM [rising, single point]"
COc1cccc(/C=C2/NC(=O)N(CC(=O)Nc3ccc(C)cc3)C2=O)c1OCc1cccc(C(=O)O)c1,36.2,,"32.6 µM [rising, single point]"
CCCn1c(=O)c2ccccc2n2c(SCc3nnc(-c4ccccc4Br)o3)nnc12,-7.76,"29.1 µM [rising, single point]",
CC(C)(C)c1ccc(C(=O)Nc2ccc(CC(=O)O)cc2)o1,3.42,"20.6 µM [falling, partial curve]",
CCOc1ccc(-n2c(=S)sc3c(=O)[nH]c(SCC(=O)NCc4ccco4)nc32)cc1,46.5,"6.51 µM [falling, single point]",
COc1ccc(/C=C(\NC(=O)c2ccco2)C(=O)NCc2ccco2)cc1,-13.2,,

Structure (SMILES),cell number change [%],AC50 [1],AC50 [2]
CCn1c2ccccc2c2cc(/C=N/n3c(C)nnc3C)ccc21,-30.8,"6.51 µM [rising, single point]","5.17 µM [falling, single point]"
Cn1cc(CN2CCC(n3nccc3NC(=O)CCOc3ccccc3)CC2)cn1,-8.26,"0.00517 µM [falling, full curve, poor fit]",
COc1ccc(C(=O)Cn2c(NCCCO)nc3ccccc32)cc1OC,,"29.1 µM [rising, single point]",
CCOc1ccc(NC(=O)Cc2ccc(S(=O)(=O)N3CCOCC3)s2)cc1OCC,15.7,,
Cc1ccc(C(C)C)c(OCC(O)CNC2CCCC2)c1 (centres undefined),-15,,
CCn1cc([N+](=O)[O-])c(C(=O)Nc2c(C)nn(Cc3cccc(F)c3)c2C)n1,,"2.06 µM [rising, single point]","3.66 µM [rising, single point]"
O=S1(=O)CC/C(=N/Nc2ccc(C(F)(F)F)cn2)c2cc(F)ccc21,69,,
Cc1cc(C(=O)c2cnc(/N=C/N(C)C)s2)cc(C)c1O,6.62,,
Cc1ccc(S(=O)(=O)N2CCN(C(=O)CSc3nccn3C)CC2)cc1,-32.3,"0.651 µM [falling, partial curve, poor fit]","0.82 µM [falling, full curve, poor fit]"
CCOC(=O)c1c(-c2ccccc2)csc1NC(=O)C(C)NCCCN1CCOCC1 (centres undefined),17.9,,
CCN(CC(=O)NCc1ccc(Cl)cc1)C(=O)CSc1ccccc1F,-10.9,"0.00517 µM [falling, full curve, poor fit]",
CS(=O)(=O)N1CCC2(CC1)OCCN2S(=O)(=O)c1ccccc1,,"6.51 µM [falling, single point]","1.46 µM [falling, partial curve]"
O=C(NC1=NCCS1)C1CC(=O)N(c2ccc(F)cc2)C1 (centres undefined),-17.8,"20.6 µM [falling, single point]",
Cn1c(CC(=O)Nc2ccccc2F)nnc1SCC(=O)Nc1nncs1,15.1,,
COc1ccc(S(=O)(=O)NNC(=O)C23CC4CC(CC(C4)C2)C3)cc1[N+](=O)[O-],-11,,
COc1ccc(-c2noc(COc3ccccc3OC)n2)cc1OC,,"1.3 µM [rising, full curve]","4.11 µM [rising, single point]"
CS(=O)(=O)N1CCC(C(=O)NCc2ccncc2)CC1,0.476,"29.1 µM [falling, partial curve]",
CC(NC(=O)[C@@H](NC(=O)[C@@H]1Cc2ccccc2CN1)C(C)C)c1ccccc1 (some centres undefined),5.73,"20.6 µM [rising, single point]",
COc1ccc(NC(=O)c2ccccc2S(=O)c2ccccc2C#N)cc1 (centres undefined),14.8,"0.164 µM [falling, single point]",
COc1ccccc1NC(=O)c1cc2c(=O)n(C)c3ccccc3c2n1C,-6.92,"0.651 µM [rising, full curve]",

# Single records, from the list above:
# CCn1c2ccccc2c2cc(/C=N/n3c(C)nnc3C)ccc21 is listed with cell number change [%]: -30.8; AC50 [1]: 6.51 µM [rising, single point]; AC50 [2]: 5.17 µM [falling, single point]
# COc1ccc(C(=O)Cn2c(NCCCO)nc3ccccc32)cc1OC is listed with AC50 [1]: 29.1 µM [rising, single point]
# CC(NC(=O)[C@@H](NC(=O)[C@@H]1Cc2ccccc2CN1)C(C)C)c1ccccc1 (some centres undefined) is listed with cell number change [%]: 5.73; AC50 [1]: 20.6 µM [rising, single point]
